# Assay results taken from PubChem BioAssay AID504327 (National Center for Advancing Translational Sciences (NCATS), 2011).
# Protein sequences, listed by entry. Tags and fused reporters are not part of them.
# UniProt Q92830, whole entry, looked up: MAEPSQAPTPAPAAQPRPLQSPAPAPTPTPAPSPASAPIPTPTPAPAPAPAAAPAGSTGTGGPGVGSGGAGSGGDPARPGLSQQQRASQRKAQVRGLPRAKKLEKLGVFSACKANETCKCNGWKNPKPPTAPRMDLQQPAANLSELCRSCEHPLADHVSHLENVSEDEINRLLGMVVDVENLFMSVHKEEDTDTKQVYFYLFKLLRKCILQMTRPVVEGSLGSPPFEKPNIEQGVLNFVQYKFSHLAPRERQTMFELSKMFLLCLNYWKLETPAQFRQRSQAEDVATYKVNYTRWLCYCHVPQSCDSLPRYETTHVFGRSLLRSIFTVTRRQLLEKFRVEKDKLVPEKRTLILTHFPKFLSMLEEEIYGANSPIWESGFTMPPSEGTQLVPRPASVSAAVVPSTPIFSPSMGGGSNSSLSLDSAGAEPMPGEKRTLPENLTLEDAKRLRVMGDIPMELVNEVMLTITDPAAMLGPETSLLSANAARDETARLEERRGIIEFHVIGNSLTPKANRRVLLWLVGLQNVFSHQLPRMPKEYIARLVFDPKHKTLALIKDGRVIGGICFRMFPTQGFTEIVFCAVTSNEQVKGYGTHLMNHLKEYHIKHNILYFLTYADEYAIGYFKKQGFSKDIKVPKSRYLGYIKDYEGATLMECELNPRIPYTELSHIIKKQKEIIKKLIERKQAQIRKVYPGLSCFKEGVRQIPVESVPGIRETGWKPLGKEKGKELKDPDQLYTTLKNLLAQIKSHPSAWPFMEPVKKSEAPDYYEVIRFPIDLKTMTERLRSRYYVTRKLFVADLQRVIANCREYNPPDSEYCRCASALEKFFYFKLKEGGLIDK
# About 820 (0.21%) of roughly 390,000 compounds were called active. Inconclusive results, whose numbers are uncertain, are shown with a selection of clear calls. Calls come from the whole dose curve; as a rule, active = well fitted inhibition curve with a large enough effect; inconclusive = small, poorly fitted or top-dose-only effect, or another doubt; inactive = no such curve, though single readings can be large or run the other way. A potency beside an inconclusive call is a rough fit, not a confirmed value.
# Biological target: Histone acetyltransferase KAT2A (Homo sapiens) (UniProt Q92830)
# Assay: qHTS Assay for Inhibitors of GCN5L2
# Conditions: GCN5L2 HAT assay, ThioGlo1 CoA-SH fluorescence; activity change, negative = inhibition: at 58.9 µM (top of the series) unless noted
# In short: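 Enzyme at 20nM final was mixed with library compounds for 15 min at room temperature. Peptide H3(1-25) at 75uM, acetyl-CoA at 70uM and ThioGlo1 at 50uM were then added. Plates were read immediately and after 20 min (Ex340nm/Em540nm).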
# % is set by controls: 0 for no effect and ±100 for the full control effect; potency is the fitted concentration of half-maximal effect.
Structure (SMILES),Potency,"activity change, negative = inhibition"
Cc1c(OCC(=O)NCCCN2CCCC2=O)ccc2c3c(c(=O)oc12)CCCC3,"inconclusive: 0.562 µM [inhibitor, single point]",
CN(C1CCCCC1)S(=O)(=O)c1cc2c(cc1Cl)NC(=O)CO2,"inconclusive: 0.398 µM [inhibitor, full curve, poor fit]",
COc1ccc2c(c1)c1c(c(=O)n(-c3ccccc3C)c(=O)n1CC(=O)N1CCCC1)n2C,"inconclusive: 28.2 µM [inhibitor, single point]",
CCOC(=O)C1=C(C)NC(=O)NC1c1cc(Br)c(O)c(OC)c1 (stereo unspecified),,inactive: -2.8%
CCOc1cc(C(=S)N2CCOCC2)ccc1OC(=O)c1ccc(C)cc1,"inconclusive: 22.4 µM [inhibitor, single point]",
Cc1ccccc1C(=O)Nc1nnc(SCC(=O)NCc2ccco2)s1,"inconclusive: 20 µM [inhibitor, single point]",
O=C(O)c1ccc(Cn2c(SCc3cc(=O)n4cc(Br)ccc4n3)nc3ccsc3c2=O)cc1,,inactive: -13.6%
COc1ccc(F)cc1C(=O)C1CCCN(Cc2cnc(N3CCCC3)s2)C1 (stereo unspecified),,inactive: -8.49%
CCOCCn1c(N2CCCC2)nc2c1c(=O)[nH]c(=O)n2C,"inconclusive: 28.2 µM [inhibitor, partial curve]",
c1ccc(N(c2ccccc2)c2nc(N3CCCC3)nc(-n3ccnc3)n2)cc1,,inactive: -15.4%
CN(Cc1ccccc1F)C(=O)CN1c2cccc3cccc(c23)S1(=O)=O,"inconclusive: 0.501 µM [inhibitor, single point]",
Cc1ccc(S(=O)(=O)NCc2ccccc2)cc1C(=O)NCc1ccccn1,"inconclusive: 44.7 µM [inhibitor, single point]",
CC(=O)NC1(C(=O)O)CCCC1,"inconclusive: 5.01 µM [inhibitor, single point]",
CCOC(=O)N1C(=O)[C@@](c2ccc(Cl)cc2)(C(C)C)N1C(=O)OCC,,inactive: -2.86%
C[C@@H](C(=O)NCc1ccccn1)[C@@H]1C[C@@]1(C)[C@@H](NC(=O)OCc1ccccc1)c1ccccc1,,inactive: -3.78%
Cc1cccc(NC(=O)c2ccc(N(C)C3CCCCC3)c([N+](=O)[O-])c2)n1,"inconclusive: 7.08 µM [inhibitor, single point]",
Cc1oc2ccc(O)c(CN3CCCC3)c2c1C(=O)Nc1cccc(Cl)c1C,,inactive: -2.05%
CCOCCn1c(CN2CCC(Cc3ccccc3)CC2)nc2c1c(=O)n(C)c(=O)n2C,,inactive: -3.21%
COc1ccc2nc(Cl)c(C3CC(c4ccco4)=NN3C(=O)CCCC(=O)O)cc2c1 (stereo unspecified),"inconclusive: 5.01 µM [inhibitor, full curve, poor fit]",
N#C/C(=C\c1ccc(O)c(O)c1)C(=O)OCCc1cccs1,"inconclusive: 25.1 µM [inhibitor, single point]",
Cc1ccc(N=C2C(=O)Nc3ccccc32)cc1C,,inactive: -3.87%
O=C(CCC(NC(=O)OCc1ccccc1)C(=O)O)OCc1ccccc1 (stereo unspecified),"inconclusive: 31.6 µM [inhibitor, single point]",
NCCOc1ccccc1Cc1ccccc1,,inactive: 0%
Cc1ccc(CC2CC(=O)N(c3cc(Cl)ccn3)C2=O)cc1 (stereo unspecified),"inconclusive: 0.141 µM [inhibitor, full curve, poor fit]",

# 2 entries drawn at random from the list so far, as already listed:
Structure (SMILES),Potency,"activity change, negative = inhibition"
Cc1ccccc1C(=O)Nc1nnc(SCC(=O)NCc2ccco2)s1,"inconclusive: 20 µM [inhibitor, single point]",
CCOC(=O)C1=C(C)NC(=O)NC1c1cc(Br)c(O)c(OC)c1 (stereo unspecified),,inactive: -2.8%

# Following part.

Structure (SMILES),Potency,"activity change, negative = inhibition"
Cc1ccc(S(=O)(=O)Nc2ccc(O)c(S(=O)(=O)c3ccc(C)cc3)c2)cc1,"inconclusive: 0.355 µM [inhibitor, partial curve, poor fit]",
CCCC(O)(c1ccc(Cl)cc1)C(CN1CCOCC1)c1ccc(Cl)cc1 (stereo unspecified),"inconclusive: 15.8 µM [inhibitor, partial curve]",
CCCc1nc2sc3c(SCC(=O)NCc4ccco4)ncnc3c2c2c1CCC2,"inconclusive: 28.2 µM [inhibitor, single point]",
COc1ccc(C(=O)N/C(=C\c2cccc([N+](=O)[O-])c2)C(=O)Nc2cccc(C(=O)O)c2)cc1,"inconclusive: 0.141 µM [inhibitor, partial curve, poor fit]",
COc1ccccc1CN1CC[C@@]2(CCCN(C(=O)c3cccn3C)C2)C1,,inactive: -1.54%
CCOC(=O)Nc1ccc2c(c1)N(C(=O)OC)c1ccccc1CC2,"inconclusive: 0.794 µM [inhibitor, single point]",
CCN1C=C(Cc2ccc(OC)cc2)C2=C(C1)C(c1ccc(OC)cc1)C(C#N)=C(N)O2 (stereo unspecified),"inconclusive: 0.708 µM [inhibitor, single point]",
CNc1ccc(Br)cc(C(=O)/C=C/c2cc(OC)ccc2OC)c1=O,"inconclusive: 39.8 µM [inhibitor, single point]",
CC1CCN(S(=O)(=O)c2ccc(C(=O)OC(C)C(=O)NC3CCCCC3C)cc2)CC1 (stereo unspecified),"inconclusive: 0.1 µM [inhibitor, full curve, poor fit]",
CCOC(=O)c1ccc(NC(=O)c2cn(-c3ccccc3)nc2-c2ccc(Br)cc2)cc1,,inactive: -12.7%
CN/C(=C\[N+](=O)[O-])NCCSCc1ccc(CN(C)C)o1,"inconclusive: 17.8 µM [inhibitor, single point]",
CCOc1cccc(-c2nnc(SCC(=O)Nc3cc(C)ccc3OC)n2N)c1,"inconclusive: 39.8 µM [inhibitor, partial curve, poor fit]",
COc1cccc(CC2(CO)CCCN(Cc3ccc(CN4CCCCC4)s3)C2)c1 (stereo unspecified),,inactive: 4.74%
N#Cc1nc(-c2cccs2)oc1NCCCN1CCOCC1,active: 35.5 µM,
Nc1ccc(N2CCOCC2)c(Cl)c1,,inactive: 2.26%
COc1ccc(CCN=C(N)C(C)c2ccccc2)cc1OC (stereo unspecified),,inactive: -15.3%
CN(C)c1ccc(-c2cncnc2Nc2ccc(F)cc2)cc1,"inconclusive: 8.91 µM [inhibitor, single point]",
CC(=O)c1c(COC(=O)c2ccccc2)nc2ccccc2[n+]1[O-],,inconclusive: -49.8% [inhibitor]
COc1cc2c(cc1Cl)C(=O)C(F)(c1ccccc1)C(=O)N2 (stereo unspecified),"inconclusive: 39.8 µM [inhibitor, single point]",
Nc1ccc(C(=O)N/N=C/c2cn(Cc3cccc(F)c3)c3ccccc23)cc1,,inactive: -16.8%
c1cncc(-c2nc3ccccc3s2)c1,"inconclusive: 7.08 µM [inhibitor, single point]",
Cc1cccc(OCc2nc(CC(=O)Nc3ccc(C)cc3C)cs2)c1,,inactive: -3.05%
Cc1ccc(-n2nc3ccc(N)cc3n2)cc1,"inconclusive: 31.6 µM [inhibitor, single point]",
Cc1ccc(S(=O)(=O)N2CCC(=O)N(CCOCc3ccc(Cl)cc3)CC2)cc1,,inactive: -1.58%

# 3 neighbouring records from above:
Structure (SMILES),Potency,"activity change, negative = inhibition"
CC1CCN(S(=O)(=O)c2ccc(C(=O)OC(C)C(=O)NC3CCCCC3C)cc2)CC1 (stereo unspecified),"inconclusive: 0.1 µM [inhibitor, full curve, poor fit]",
CCOC(=O)c1ccc(NC(=O)c2cn(-c3ccccc3)nc2-c2ccc(Br)cc2)cc1,,inactive: -12.7%
CN/C(=C\[N+](=O)[O-])NCCSCc1ccc(CN(C)C)o1,"inconclusive: 17.8 µM [inhibitor, single point]",

# Next structures.

Structure (SMILES),Potency,"activity change, negative = inhibition"
CSc1ccccc1NC(=O)c1cc2c(=O)n3ccccc3nc2s1,"inconclusive: 1.78 µM [inhibitor, partial curve]",
Cc1ccc(CN(Cc2cc3cc4c(cc3[nH]c2=O)OCCO4)Cc2nnnn2Cc2ccco2)cc1,"inconclusive: 35.5 µM [inhibitor, single point]",
CN(c1ccccc1)S(=O)(=O)c1cccc(NC(=O)CCNC(=O)c2ccc(Cl)cc2)c1,,inactive: -1.63%
CC(C)(C)c1nnc(NC(=O)C2c3ccccc3Oc3ccccc32)s1,"inconclusive: 0.398 µM [inhibitor, full curve, poor fit]",
CCc1c2c(nc3ccc(O)cc13)-c1cc3c(c(=O)n1C2)COC(=O)[C@]3(O)CC,"inconclusive: 1.78 µM [inhibitor, partial curve, poor fit]",
Cc1ccc(-n2nc(-c3ccco3)cc2C(=O)O)c(C)c1,"inconclusive: 31.6 µM [inhibitor, single point]",
O=C1CC(c2ccccc2)CC(O)=C1C=NCc1ccc(Cl)cc1 (stereo unspecified),"inconclusive: 7.08 µM [inhibitor, single point]",
ONCc1ccccc1,,inactive: -2.06%
CCOc1cc(/C=C2\SC(=S)N(Nc3ccccc3)C2=O)ccc1O,,inactive: -10.9%
COc1ccc(-c2cc3ccc(OC(C)C(=O)O)cc3oc2=O)cc1 (stereo unspecified),"inconclusive: 28.2 µM [inhibitor, partial curve]",
COc1ccc(C(=O)NNC(=O)c2ccc(S(=O)(=O)N3CC(C)OC(C)C3)cc2)cc1 (stereo unspecified),,inactive: 2.35%
CCCCOCCOCCOCCCC,"inconclusive: 31.6 µM [inhibitor, single point]",
CCCN1CCN(S(=O)(=O)c2cn(C)nc2C)CC1,"inconclusive: 22.4 µM [inhibitor, single point]",
Cc1ccc(S(=O)(=O)N/N=C/c2ccc(OCC(=O)Nc3ccccc3Cl)cc2)cc1,"inconclusive: 39.8 µM [inhibitor, single point]",
IC(I)I,"inconclusive: 12.6 µM [inhibitor, partial curve]",
CC(C)[C@H](N)C(=O)NC[C@H]1O[C@@H](n2cnc3c(N)ncnc32)[C@H](O)[C@@H]1O,,inactive: -0.559%
O=C(O)C(c1ccccc1)N1C(=O)/C(=C\c2ccc(-c3cccc(Cl)c3)o2)SC1=S (stereo unspecified),"inconclusive: 35.5 µM [inhibitor, single point]",
CCOc1cc(CNC2CCCC2)cc(Cl)c1OCc1ccc(F)cc1,"inconclusive: 7.08 µM [inhibitor, single point]",
O=C(NCCN1C(=O)S/C(=C\c2ccc(Cl)cc2Cl)C1=O)C1=COCCO1,,inactive: -7.57%
COc1ccc(/C=N/NC(=O)Nc2cccc3nsnc23)c(OC)c1,,inactive: -3.21%
Cc1ccc(S(=O)(=O)N2CCN(C(=O)CN3CCN(C)CC3)C2)cc1,"inconclusive: 3.55 µM [inhibitor, single point]",
Cn1c(SCC(=O)Nc2cc(=O)n(C)c(=O)n2C)nnc1-c1cccs1,"inconclusive: 5.01 µM [inhibitor, single point]",
COC(=O)c1c(-c2ccc(OC)cc2)sc2cc(OC)c(OC)cc12,"inconclusive: 39.8 µM [inhibitor, single point]",
